# From the supplement of paper PMC6411743
# Amino acid sequences for entries named in this document (tags omitted). A change or cut given only in a name is not applied to a line headed by its entry.
# UniProt Q9UBL3, whole entry: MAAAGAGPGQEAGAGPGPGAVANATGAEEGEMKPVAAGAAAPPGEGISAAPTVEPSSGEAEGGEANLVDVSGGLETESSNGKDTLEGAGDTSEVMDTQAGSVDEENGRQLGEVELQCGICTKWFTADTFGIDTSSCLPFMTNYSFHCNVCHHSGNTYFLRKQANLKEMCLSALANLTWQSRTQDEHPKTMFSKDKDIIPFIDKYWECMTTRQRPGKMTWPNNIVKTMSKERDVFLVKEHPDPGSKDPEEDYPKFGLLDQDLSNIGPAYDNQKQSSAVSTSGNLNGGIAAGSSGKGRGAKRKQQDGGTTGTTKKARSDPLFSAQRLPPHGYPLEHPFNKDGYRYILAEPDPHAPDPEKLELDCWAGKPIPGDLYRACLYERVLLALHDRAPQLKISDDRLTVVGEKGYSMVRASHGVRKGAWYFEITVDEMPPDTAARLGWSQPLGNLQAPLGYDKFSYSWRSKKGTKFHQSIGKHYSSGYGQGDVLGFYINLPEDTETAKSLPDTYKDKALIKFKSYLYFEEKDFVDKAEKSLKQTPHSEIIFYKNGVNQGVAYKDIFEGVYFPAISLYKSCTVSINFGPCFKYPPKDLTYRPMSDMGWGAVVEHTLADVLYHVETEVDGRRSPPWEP
# UniProt Q9UJY5: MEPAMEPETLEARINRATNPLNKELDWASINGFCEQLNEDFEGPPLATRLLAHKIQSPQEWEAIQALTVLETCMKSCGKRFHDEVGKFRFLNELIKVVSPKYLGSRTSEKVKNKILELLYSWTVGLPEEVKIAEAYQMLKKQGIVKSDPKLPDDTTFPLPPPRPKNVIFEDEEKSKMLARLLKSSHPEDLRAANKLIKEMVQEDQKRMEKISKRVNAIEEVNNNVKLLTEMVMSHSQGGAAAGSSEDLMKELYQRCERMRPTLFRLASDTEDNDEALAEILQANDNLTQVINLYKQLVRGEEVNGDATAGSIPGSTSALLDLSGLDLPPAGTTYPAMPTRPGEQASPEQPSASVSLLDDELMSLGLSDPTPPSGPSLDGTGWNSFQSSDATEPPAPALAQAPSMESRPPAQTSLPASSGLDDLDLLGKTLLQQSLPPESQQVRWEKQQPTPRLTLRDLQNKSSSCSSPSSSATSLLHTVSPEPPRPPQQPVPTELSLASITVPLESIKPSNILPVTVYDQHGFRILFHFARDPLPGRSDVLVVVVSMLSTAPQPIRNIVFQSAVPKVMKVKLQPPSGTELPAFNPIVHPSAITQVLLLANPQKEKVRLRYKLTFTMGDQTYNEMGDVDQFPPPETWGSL
# UniProt Q9UJJ9: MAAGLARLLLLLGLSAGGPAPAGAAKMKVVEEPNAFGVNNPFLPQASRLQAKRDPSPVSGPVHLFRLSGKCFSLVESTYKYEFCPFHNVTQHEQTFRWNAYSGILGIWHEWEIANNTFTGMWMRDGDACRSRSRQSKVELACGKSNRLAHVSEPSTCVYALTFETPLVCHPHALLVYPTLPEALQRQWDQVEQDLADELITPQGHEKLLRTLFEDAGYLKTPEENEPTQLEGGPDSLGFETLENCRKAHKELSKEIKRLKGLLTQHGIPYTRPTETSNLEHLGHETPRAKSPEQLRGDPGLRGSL
# UniProt Q9Y221: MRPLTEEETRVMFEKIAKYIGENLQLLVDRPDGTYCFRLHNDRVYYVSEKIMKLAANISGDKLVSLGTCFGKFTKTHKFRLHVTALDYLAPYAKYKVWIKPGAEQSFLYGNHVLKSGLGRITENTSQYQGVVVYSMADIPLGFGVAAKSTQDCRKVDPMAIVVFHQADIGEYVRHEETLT
# UniProt Q9ULM3: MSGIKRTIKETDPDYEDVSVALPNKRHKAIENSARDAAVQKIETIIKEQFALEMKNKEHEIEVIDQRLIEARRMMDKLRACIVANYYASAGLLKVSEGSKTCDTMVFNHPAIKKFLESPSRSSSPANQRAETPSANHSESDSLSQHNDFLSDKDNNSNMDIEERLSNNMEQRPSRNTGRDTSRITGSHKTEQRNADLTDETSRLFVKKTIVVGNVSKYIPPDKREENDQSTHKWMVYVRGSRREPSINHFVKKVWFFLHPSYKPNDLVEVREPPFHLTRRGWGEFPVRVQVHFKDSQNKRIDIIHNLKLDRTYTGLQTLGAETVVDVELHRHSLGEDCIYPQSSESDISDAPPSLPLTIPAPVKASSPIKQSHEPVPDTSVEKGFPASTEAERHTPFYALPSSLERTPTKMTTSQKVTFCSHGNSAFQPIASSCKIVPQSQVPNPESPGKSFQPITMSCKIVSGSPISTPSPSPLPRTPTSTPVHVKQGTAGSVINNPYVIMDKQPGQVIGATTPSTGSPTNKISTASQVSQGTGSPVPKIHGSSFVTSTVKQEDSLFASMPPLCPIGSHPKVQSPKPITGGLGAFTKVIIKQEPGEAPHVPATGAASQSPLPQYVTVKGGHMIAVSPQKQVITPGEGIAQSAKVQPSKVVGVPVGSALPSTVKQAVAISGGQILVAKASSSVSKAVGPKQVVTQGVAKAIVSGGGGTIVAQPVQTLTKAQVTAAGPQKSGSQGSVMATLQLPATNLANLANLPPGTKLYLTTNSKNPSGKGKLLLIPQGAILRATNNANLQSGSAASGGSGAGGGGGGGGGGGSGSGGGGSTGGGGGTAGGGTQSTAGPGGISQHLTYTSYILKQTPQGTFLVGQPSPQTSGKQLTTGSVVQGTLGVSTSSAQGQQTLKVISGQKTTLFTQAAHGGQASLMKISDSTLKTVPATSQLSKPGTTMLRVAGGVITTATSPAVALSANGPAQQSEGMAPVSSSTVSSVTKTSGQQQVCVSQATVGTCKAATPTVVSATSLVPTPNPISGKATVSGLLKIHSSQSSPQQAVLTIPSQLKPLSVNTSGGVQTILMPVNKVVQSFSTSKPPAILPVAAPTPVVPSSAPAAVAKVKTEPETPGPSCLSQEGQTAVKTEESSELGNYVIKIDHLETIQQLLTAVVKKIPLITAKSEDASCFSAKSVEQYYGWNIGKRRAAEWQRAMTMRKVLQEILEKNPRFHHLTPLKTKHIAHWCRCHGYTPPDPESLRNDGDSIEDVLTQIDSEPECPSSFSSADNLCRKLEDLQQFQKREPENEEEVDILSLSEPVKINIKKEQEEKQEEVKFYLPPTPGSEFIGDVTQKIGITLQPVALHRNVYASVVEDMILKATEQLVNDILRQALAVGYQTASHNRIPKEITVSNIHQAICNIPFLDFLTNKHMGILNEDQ
# UniProt Q9UBV8: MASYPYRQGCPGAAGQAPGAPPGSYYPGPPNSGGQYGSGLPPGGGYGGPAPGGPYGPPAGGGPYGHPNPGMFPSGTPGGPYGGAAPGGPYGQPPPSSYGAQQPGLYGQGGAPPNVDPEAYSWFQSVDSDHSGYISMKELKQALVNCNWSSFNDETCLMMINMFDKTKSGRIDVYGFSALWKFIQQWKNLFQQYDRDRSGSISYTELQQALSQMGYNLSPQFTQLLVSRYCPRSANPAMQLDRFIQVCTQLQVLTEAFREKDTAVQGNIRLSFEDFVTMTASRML
# UniProt Q9UNF1: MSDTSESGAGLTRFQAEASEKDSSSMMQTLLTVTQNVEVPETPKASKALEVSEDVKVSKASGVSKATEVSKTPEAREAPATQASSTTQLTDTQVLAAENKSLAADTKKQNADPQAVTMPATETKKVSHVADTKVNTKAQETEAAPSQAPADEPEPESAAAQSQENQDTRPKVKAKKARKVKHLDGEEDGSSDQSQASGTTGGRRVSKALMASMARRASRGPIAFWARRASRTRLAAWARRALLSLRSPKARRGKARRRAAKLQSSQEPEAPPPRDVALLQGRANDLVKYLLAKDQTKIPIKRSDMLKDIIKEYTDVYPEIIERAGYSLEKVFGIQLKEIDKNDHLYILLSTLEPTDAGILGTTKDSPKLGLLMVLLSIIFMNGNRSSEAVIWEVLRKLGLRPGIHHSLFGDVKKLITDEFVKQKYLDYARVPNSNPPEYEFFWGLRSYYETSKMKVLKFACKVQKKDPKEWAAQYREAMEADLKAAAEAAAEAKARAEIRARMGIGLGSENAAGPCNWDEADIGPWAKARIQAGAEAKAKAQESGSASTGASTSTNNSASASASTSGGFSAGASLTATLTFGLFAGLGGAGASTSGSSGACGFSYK
# UniProt Q9UMY1: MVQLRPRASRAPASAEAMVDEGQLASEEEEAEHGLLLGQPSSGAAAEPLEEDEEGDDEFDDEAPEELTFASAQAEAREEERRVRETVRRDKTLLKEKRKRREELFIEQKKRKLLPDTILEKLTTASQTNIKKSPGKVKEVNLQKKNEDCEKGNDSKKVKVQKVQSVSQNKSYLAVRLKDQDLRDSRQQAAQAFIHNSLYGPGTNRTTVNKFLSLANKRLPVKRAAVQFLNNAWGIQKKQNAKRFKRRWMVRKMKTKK
# UniProt Q9UG22: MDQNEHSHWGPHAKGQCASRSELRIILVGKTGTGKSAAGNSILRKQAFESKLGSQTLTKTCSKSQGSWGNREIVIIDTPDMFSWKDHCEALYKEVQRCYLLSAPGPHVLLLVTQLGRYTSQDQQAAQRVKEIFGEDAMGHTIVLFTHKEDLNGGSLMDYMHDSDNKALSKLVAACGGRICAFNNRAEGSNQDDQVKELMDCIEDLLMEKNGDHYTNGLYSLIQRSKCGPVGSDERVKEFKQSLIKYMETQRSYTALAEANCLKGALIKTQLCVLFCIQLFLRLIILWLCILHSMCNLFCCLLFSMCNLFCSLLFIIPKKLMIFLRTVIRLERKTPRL
# UniProt Q9UDY2: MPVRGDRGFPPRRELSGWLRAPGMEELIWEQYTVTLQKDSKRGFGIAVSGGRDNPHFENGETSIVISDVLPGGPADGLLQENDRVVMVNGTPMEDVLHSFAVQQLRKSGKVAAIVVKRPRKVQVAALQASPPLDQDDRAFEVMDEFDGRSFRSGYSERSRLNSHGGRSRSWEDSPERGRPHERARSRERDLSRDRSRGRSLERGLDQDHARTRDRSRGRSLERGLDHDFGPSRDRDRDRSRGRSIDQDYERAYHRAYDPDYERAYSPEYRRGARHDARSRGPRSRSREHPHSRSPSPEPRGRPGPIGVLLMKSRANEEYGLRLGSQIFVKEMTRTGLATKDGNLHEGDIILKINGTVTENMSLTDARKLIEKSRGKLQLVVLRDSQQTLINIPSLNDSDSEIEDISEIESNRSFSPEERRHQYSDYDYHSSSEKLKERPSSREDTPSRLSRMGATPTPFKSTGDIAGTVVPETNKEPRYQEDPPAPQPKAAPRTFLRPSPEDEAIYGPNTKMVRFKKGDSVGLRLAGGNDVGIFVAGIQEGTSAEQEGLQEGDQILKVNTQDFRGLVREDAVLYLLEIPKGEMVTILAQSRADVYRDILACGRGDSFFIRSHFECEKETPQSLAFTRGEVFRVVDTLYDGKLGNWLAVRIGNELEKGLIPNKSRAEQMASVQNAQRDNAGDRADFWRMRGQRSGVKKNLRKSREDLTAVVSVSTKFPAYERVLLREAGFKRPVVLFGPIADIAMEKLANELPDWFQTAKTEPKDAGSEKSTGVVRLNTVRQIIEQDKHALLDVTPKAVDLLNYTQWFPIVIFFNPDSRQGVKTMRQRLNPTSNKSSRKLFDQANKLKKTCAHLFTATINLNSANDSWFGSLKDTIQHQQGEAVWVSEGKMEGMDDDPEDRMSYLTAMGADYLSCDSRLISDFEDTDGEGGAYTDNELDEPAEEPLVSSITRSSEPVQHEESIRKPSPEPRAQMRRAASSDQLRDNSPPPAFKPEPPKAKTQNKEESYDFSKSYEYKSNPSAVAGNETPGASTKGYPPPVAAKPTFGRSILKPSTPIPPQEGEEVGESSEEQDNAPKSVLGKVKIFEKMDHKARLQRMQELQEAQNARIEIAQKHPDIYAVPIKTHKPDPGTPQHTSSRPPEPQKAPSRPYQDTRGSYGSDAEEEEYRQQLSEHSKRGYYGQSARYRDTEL
# UniProt Q9UHD1: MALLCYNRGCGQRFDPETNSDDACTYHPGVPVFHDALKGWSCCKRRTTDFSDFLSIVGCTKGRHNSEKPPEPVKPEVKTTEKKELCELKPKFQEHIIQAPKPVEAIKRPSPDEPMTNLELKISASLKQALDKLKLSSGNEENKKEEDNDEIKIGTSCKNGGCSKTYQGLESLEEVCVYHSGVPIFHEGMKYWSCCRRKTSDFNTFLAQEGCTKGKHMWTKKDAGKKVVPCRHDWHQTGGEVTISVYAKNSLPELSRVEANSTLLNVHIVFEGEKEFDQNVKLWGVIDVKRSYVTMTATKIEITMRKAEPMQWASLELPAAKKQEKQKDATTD
# UniProt Q9UKA8, whole entry: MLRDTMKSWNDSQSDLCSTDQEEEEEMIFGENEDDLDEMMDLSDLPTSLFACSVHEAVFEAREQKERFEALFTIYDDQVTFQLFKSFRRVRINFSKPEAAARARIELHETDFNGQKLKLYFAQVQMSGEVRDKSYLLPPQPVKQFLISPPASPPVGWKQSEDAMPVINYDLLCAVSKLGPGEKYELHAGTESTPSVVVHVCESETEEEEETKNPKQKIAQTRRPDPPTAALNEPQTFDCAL
# UniProt Q9UBF6, whole entry: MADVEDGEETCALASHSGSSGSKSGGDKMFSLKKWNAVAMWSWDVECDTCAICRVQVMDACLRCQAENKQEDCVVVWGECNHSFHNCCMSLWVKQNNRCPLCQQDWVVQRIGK
# ± gives the standard deviation of the averaged measurements. The entries are a selection whose mix differs from that of the whole data set.
# Compound: Nc1ncnc2c1ncn2[C@@H]1O[C@H](COP(=O)(O)OP(=O)(O)OP(=O)(O)O)[C@@H](O)[C@H]1O [adenosine triphosphate]
# Assay: NP40-soluble protein abundance relative to vehicle (solubility fold change) (ratio); higher = more soluble protein in presence of ATP
# Procedure, shortened: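 Across three independent experiments, values are fold changes against the detergent-processed vehicle for each replicate, based on vsn-normalised intensities. The samples were Jurkat crude lysate treated with eight concentrations (0.1 to 10 mM) for 10 min at room temperature and then 3 min at 37 °C. Lysate was solubilised with 0.8% NP40 and benzonase, ultracentrifuged, and the supernatant analysed by TMT-labelled LC-MS/MS.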
Target,NP40-soluble protein abundance (concentration: 1mM),NP40-soluble protein abundance (concentration: 2mM),NP40-soluble protein abundance (concentration: 4mM),NP40-soluble protein abundance (concentration: 6mM),NP40-soluble protein abundance (concentration: 8mM),NP40-soluble protein abundance (concentration: 10mM)
UniProt Q9UBL3 and related entries,1.01 ± 0.031,1.02 ± 0.016,0.986 ± 0.025,1.02 ± 0.014,1.03 ± 0.013,1.02 ± 0.03
CROT (UniProt Q9UKG9),0.994 ± 0.091,1.02 ± 0.047,0.977 ± 0.068,0.946 ± 0.1,1.01 ± 0.073,1.01 ± 0.074
INO80 (UniProt Q9ULG1),1.2 ± 0.14,1.5 ± 0.34,1.24 ± 0.093,1.23 ± 0.18,1.34 ± 0.15,1.38 ± 0.18
FAM8A1 (UniProt Q9UBU6),0.974 ± 0.065,1 ± 0.037,0.966 ± 0.051,1.01 ± 0.057,0.978 ± 0.032,0.974 ± 0.016
ENOPH1 (UniProt Q9UHY7),1.01 ± 0.019,1.03 ± 0.058,0.994 ± 0.047,1.01 ± 0.083,0.995 ± 0.073,1 ± 0.074
UniProt Q9ULH7-4|Q9ULH7-5,0.948 ± 0.04,0.934 ± 0.025,0.931 ± 0.04,0.958 ± 0.036,0.904 ± 0.05,0.912 ± 0.031
UniProt Q9UJY5 and related entries,0.946 ± 0.03,0.941 ± 0.0063,0.945 ± 0.034,0.9461 ± 0.0075,0.911 ± 0.025,0.906 ± 0.012
GNPTG (UniProt Q9UJJ9),0.958 ± 0.1,0.93 ± 0.043,0.964 ± 0.081,0.94 ± 0.15,0.93 ± 0.068,0.907 ± 0.055
STX8 (UniProt Q9UNK0),0.911 ± 0.09,0.917 ± 0.023,0.958 ± 0.032,0.947 ± 0.046,0.94 ± 0.07,0.842 ± 0.15
RUVBL2 (UniProt Q9Y230),1.11 ± 0.021,1.09 ± 0.018,1.077 ± 0.0088,1.11 ± 0.041,1.14 ± 0.013,1.13 ± 0.045
UniProt Q9UMZ2-3|Q9UMZ2-4|Q9UMZ2-5|Q9UMZ2-6|Q9UMZ2-7|Q9UMZ2-8|Q9UMZ2-9|Q9UMZ2,0.929 ± 0.041,0.938 ± 0.031,0.935 ± 0.03,0.965 ± 0.036,0.909 ± 0.016,0.904 ± 0.023
DHCR7 (UniProt Q9UBM7),0.967 ± 0.078,0.957 ± 0.061,0.932 ± 0.085,0.855 ± 0.11,0.961 ± 0.031,0.978 ± 0.025
GTF3C4 (UniProt Q9UKN8),1.06 ± 0.043,1.03 ± 0.015,1.05 ± 0.012,1.02 ± 0.024,1.04 ± 0.013,1.04 ± 0.029
NAGK (UniProt Q9UJ70),0.991 ± 0.04,1 ± 0.03,1.01 ± 0.019,0.936 ± 0.067,0.9375 ± 0.0028,0.983 ± 0.044
UniProt Q9Y221 and related entries,1.14 ± 0.061,1.15 ± 0.025,1.38 ± 0.048,1.29 ± 0.079,1.44 ± 0.14,1.55 ± 0.12
UniProt Q9UJU2 and related entries,0.899 ± 0.052,0.878 ± 0.047,0.843 ± 0.043,0.881 ± 0.055,0.86 ± 0.02,0.86 ± 0.071
YEATS2 (UniProt Q9ULM3),1.14 ± 0.11,1.09 ± 0.049,1.14 ± 0.08,1.1 ± 0.05,1.36 ± 0.14,1.22 ± 0.11
PEF1 (UniProt Q9UBV8),0.843 ± 0.054,0.912 ± 0.051,0.872 ± 0.018,0.855 ± 0.069,0.874 ± 0.031,0.819 ± 0.11
UniProt Q9UH99,1.18 ± 0.023,1.163 ± 0.0095,1.151 ± 0.0031,1.17 ± 0.013,1.16 ± 0.028,1.173 ± 0.011
MAGED2 (UniProt Q9UNF1),0.95 ± 0.032,0.9488 ± 0.0072,0.923 ± 0.011,0.961 ± 0.02,0.911 ± 0.0077,0.921 ± 0.026
UniProt Q9UIB8 and related entries,0.945 ± 0.035,0.949 ± 0.034,0.905 ± 0.04,0.932 ± 0.046,0.904 ± 0.038,0.89 ± 0.065
VPS51 (UniProt Q9UID3),0.965 ± 0.082,0.948 ± 0.075,0.986 ± 0.051,0.888 ± 0.075,0.974 ± 0.045,0.968 ± 0.056
XPO7 (UniProt Q9UIA9),0.962 ± 0.11,0.986 ± 0.068,0.951 ± 0.025,0.904 ± 0.11,0.9538 ± 0.0081,0.98 ± 0.019
UniProt Q9UP83 and related entries,0.981 ± 0.04,0.993 ± 0.058,0.955 ± 0.044,0.936 ± 0.068,0.924 ± 0.063,0.922 ± 0.04
COPG2 (UniProt Q9UBF2),1.02 ± 0.083,1 ± 0.054,0.984 ± 0.031,0.939 ± 0.041,0.984 ± 0.011,0.991 ± 0.031
UniProt Q9UBP0 and related entries,0.985 ± 0.02,1.01 ± 0.014,1.01 ± 0.027,1.03 ± 0.018,0.98 ± 0.041,1.028 ± 0.0089

# Reprinted from above for reference:
Target,NP40-soluble protein abundance (concentration: 1mM),NP40-soluble protein abundance (concentration: 2mM),NP40-soluble protein abundance (concentration: 4mM),NP40-soluble protein abundance (concentration: 6mM),NP40-soluble protein abundance (concentration: 8mM),NP40-soluble protein abundance (concentration: 10mM)
UniProt Q9Y221 and related entries,1.14 ± 0.061,1.15 ± 0.025,1.38 ± 0.048,1.29 ± 0.079,1.44 ± 0.14,1.55 ± 0.12
UniProt Q9UJU2 and related entries,0.899 ± 0.052,0.878 ± 0.047,0.843 ± 0.043,0.881 ± 0.055,0.86 ± 0.02,0.86 ± 0.071
YEATS2 (UniProt Q9ULM3),1.14 ± 0.11,1.09 ± 0.049,1.14 ± 0.08,1.1 ± 0.05,1.36 ± 0.14,1.22 ± 0.11

# More records

Target,NP40-soluble protein abundance (concentration: 1mM),NP40-soluble protein abundance (concentration: 2mM),NP40-soluble protein abundance (concentration: 4mM),NP40-soluble protein abundance (concentration: 6mM),NP40-soluble protein abundance (concentration: 8mM),NP40-soluble protein abundance (concentration: 10mM)
NOL7 (UniProt Q9UMY1),0.987 ± 0.085,0.952 ± 0.054,0.974 ± 0.061,1.03 ± 0.032,0.966 ± 0.043,0.976 ± 0.069
UniProt Q9UGN5-2,1.11 ± 0.054,1.17 ± 0.053,1.24 ± 0.023,1.31 ± 0.038,1.34 ± 0.027,1.39 ± 0.074
UniProt Q9UBB6-2|Q9UBB6 and related entries,0.877 ± 0.024,0.909 ± 0.049,0.893 ± 0.023,0.871 ± 0.029,0.906 ± 0.06,0.931 ± 0.028
UniProt Q9UHP3 and related entries,0.925 ± 0.062,0.925 ± 0.064,0.918 ± 0.044,0.795 ± 0.15,0.87 ± 0.028,0.921 ± 0.043
UXT (UniProt Q9UBK9),0.9681 ± 0.0014,0.9287 ± 0.0048,0.86 ± 0.011,0.91 ± 0.057,0.887 ± 0.049,0.872 ± 0.052
UniProt Q9UER7 and related entries,0.915 ± 0.07,0.914 ± 0.052,0.912 ± 0.056,0.983 ± 0.077,0.924 ± 0.053,0.933 ± 0.06
VDAC3 (UniProt Q9Y277),0.972 ± 0.064,0.953 ± 0.038,0.92 ± 0.049,0.908 ± 0.066,0.906 ± 0.038,0.929 ± 0.017
ZMYM2 (UniProt Q9UBW7),0.984 ± 0.041,0.974 ± 0.061,0.997 ± 0.038,1.03 ± 0.081,1.07 ± 0.056,1.11 ± 0.065
UniProt Q9UG22,0.97 ± 0.02,1.02 ± 0.014,0.976 ± 0.066,0.963 ± 0.066,1.01 ± 0.017,1 ± 0.036
UniProt Q9UKT9 and related entries,1.02 ± 0.085,1.05 ± 0.032,1.1 ± 0.081,1.17 ± 0.081,1.19 ± 0.058,1.15 ± 0.071
UniProt Q9Y232-2|Q9Y232,0.929 ± 0.059,0.999 ± 0.12,0.974 ± 0.042,0.945 ± 0.12,0.965 ± 0.039,0.967 ± 0.092
ARMCX3 (UniProt Q9UH62),0.946 ± 0.034,0.954 ± 0.066,0.956 ± 0.032,0.895 ± 0.09,0.9 ± 0.064,0.992 ± 0.01
UniProt Q9UDY2 and related entries,1.18 ± 0.037,1.22 ± 0.056,1.26 ± 0.13,1.28 ± 0.1,1.2 ± 0.082,1.26 ± 0.13
UniProt Q9UI12 and related entries,0.983 ± 0.04,0.964 ± 0.018,0.934 ± 0.014,0.967 ± 0.034,0.937 ± 0.0084,0.947 ± 0.038
CHORDC1 (UniProt Q9UHD1),0.976 ± 0.056,0.973 ± 0.037,0.937 ± 0.06,0.971 ± 0.036,0.963 ± 0.071,0.951 ± 0.05
C19orf53 (UniProt Q9UNZ5),0.931 ± 0.3,0.931 ± 0.15,0.961 ± 0.25,1.16 ± 0.28,1.03 ± 0.23,1.16 ± 0.32
NIPSNAP3A (UniProt Q9UFN0),1.05 ± 0.17,1.03 ± 0.13,1.04 ± 0.13,0.938 ± 0.17,1.06 ± 0.099,1.02 ± 0.1
PACSIN3 (UniProt Q9UKS6),1.02 ± 0.029,1.01 ± 0.034,1.05 ± 0.033,1.01 ± 0.014,1.05 ± 0.031,1.06 ± 0.011
UniProt Q9UNM6 and related entries,0.946 ± 0.062,0.879 ± 0.029,0.845 ± 0.017,0.842 ± 0.025,0.883 ± 0.0098,0.845 ± 0.044
UniProt Q9UKA8 and related entries,1.14 ± 0.33,0.983 ± 0.13,1.03 ± 0.14,0.963 ± 0.018,0.903 ± 0.12,0.997 ± 0.015
DCTN4 (UniProt Q9UJW0),1.01 ± 0.038,0.984 ± 0.017,0.976 ± 0.012,0.96 ± 0.065,0.988 ± 0.063,0.979 ± 0.058
MED13 (UniProt Q9UHV7),1.24 ± 0.11,1.31 ± 0.027,1.23 ± 0.022,1.17 ± 0.015,1.07 ± 0.022,1.285 ± 0.012
RNF7 (UniProt Q9UBF6),1.24 ± 0.3,1.03 ± 0.079,1 ± 0.08,1.06 ± 0.14,0.939 ± 0.089,0.942 ± 0.041
ASF1A (UniProt Q9Y294),1.14 ± 0.054,1.08 ± 0.03,1.07 ± 0.053,1.081 ± 0.0092,1.09 ± 0.089,1.02 ± 0.03
HECA (UniProt Q9UBI9),0.998 ± 0.41,1.02 ± 0.38,1.07 ± 0.49,1.07 ± 0.48,1.14 ± 0.52,1.13 ± 0.5
